Reference: US20240345008A1 (Eth Zurich, priority 2021, published 2024)

Assay: photo-CIDNP polarizability of ligands: signal-to-noise enhancement (SNE), irradiated vs non-irradiated 1H NMR
Assay type: physicochemical
Details: 600 MHz; for signal-to-noise enhancement (SNE): ligand 100 μM, 2 s irradiation, phosphate buffer pH 7.0
[1] = photosensitizer fluorescein 25 μM, 450 nm

Row | Compound | signal-to-noise enhancement (SNE) (photosensitizer AT12 25 μM, 532 nm) | signal-to-noise enhancement (SNE) [1] | photo-CIDNP activity of ligand (tofacitinib 100 μM, fluorescein 25 μM, 532 nm, 1 W, 4 s)
1 | Cc1cccc(-c2nc(C(=O)O)c(C)[nH]2)c1 [ligand 3-1, 5-methyl-2-(3-methylphenyl)-imidazole-4-carboxylic acid] | 9 | – | –
2 | O=C1NCCCc2c1oc1ccc(O)cc21 [ligand 3-4, 4-hydroxy-8-oxa-11-azatricyclo[7.5.0.0^2,7]tetradeca-1 (9),2,4,6-tetraen-10-one] | – | 22 | –
3 | C[C@@H]1CCN(C(=O)CC#N)C[C@@H]1N(C)c1ncnc2[nH]ccc12 [tofacitinib, 3-[(3R,4R)-4-methyl-3-[methyl({7H-pyrrolo[2,3-d]pyrimidin-4-yl})amino]piperidin-1-yl]-3-oxopropanenitrile] | – | 68 | photo-CIDNP active ligand
